Measurements published in patent US8592650B2, “Elite event EE-GM3 and methods and kits for identifying such event in biological samples” (Bayer CropScience N.V., priority 2009, dated 2013).
Some of these results come from one statement about several compounds together. At least one structure is not confirmed: it was looked up by name or label, or the drawing left a doubt.

Test system: soybean plants comprising EE-GM3
Assay: Replicated field trial of crop tolerance (bleaching) to HPPD inhibitor herbicides
Type: in vivo, Glycine max
Conditions: Agridex

Structure (SMILES)	crop tolerance (bleaching) (treated either pre- or post-emergence, 70 gr ai/ha with 0.5% NIS)	crop tolerance (bleaching) (post-emergence application, 35 gr ai/ha with 0.5% NIS)
CS(=O)(=O)c1cc(C(F)(F)F)ccc1C(=O)c1cnoc1C1CC1 [IFT, (5-cyclopropyl-4-isoxazolyl)[2-(methylsulfonyl)-4-(trifluoromethyl)phenyl]methanone]	less than 10%	
Cc1nn(C)c(O)c1C(=O)c1ccc(C(F)(F)F)cc1S(C)(=O)=O [pyrasulfotole]		less than 10%
